About 1,400 (4.5%) of roughly 31,000 sequences were called active.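 Rule for the calls: active = median seed-adjusted z-score above 1 or below -1; inactive = the rest.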 Some of the results follow.

This test is described as follows: Novel Modifiers of Survival Motor Neuron (SMN) Protein: Gene Identification via Genome-wide siRNA Screen.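 Note: luminescence tracks full-length SMN protein made from the SMN2 reporter.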 Conditions: HEK293T SMN2-luciferase reporter, siRNA knockdown, 72 h; actives lie on both sides. The procedure, abridged: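 Steps: spot 1 pmol siRNA, add Lipofectamine RNAiMax in serum-free DMEM, seed HEK293T SMN2–luciferase reporter cells; incubate 72 h at 37 °C; add ONE-Glo; normalize luminescence to control siRNA, log10, MAD. Candidates: |MAD| > 1.0.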
Take UGGUGAUCAUCAACGAGUATT against LRRTM1: the median seed-adjusted z-score is inactive: -0.528.

Regarding GUGUUCGUUUGGGUGCAAATT against SLC10A3, the median seed-adjusted z-score was inactive: -0.25. In the case of GGAAAGAAUUCUGAAUAUATT against MEGF10 it was inactive: 0.622; in that of AGGCCUGCUUAUUCACCAUTT against POLR2J2, inactive: 0.375; in that of CGUGGUCCUUAACAUCAAATT against PCDH7, inactive: 0.192.

As for GACUGACACGGAAUAGUGUTT against ZNF286A, the median seed-adjusted z-score was inactive: 0.0368. Consider GUGUAAUCAUUGUGGAAAATT against ZNF569, for which the median seed-adjusted z-score was inactive: 0.425.

In the case of CCUUGUUUCUAGCAGCUAATT against CCNT1, the median seed-adjusted z-score is inactive: -0.72. In the case of CCGUCGGACUGAUUGCACUTT against 3-Mar it was inactive: 0.069; in that of GGGUGGAUCAAAUAAGUUUTT against SKAP1, inactive: -0.00637. Next, GAACGACAAGCCUUACUGUTT against PXN: inactive: -0.69. In the case of CACGAGGAGUGGACAAUAUTT against UCK1 it was inactive: -0.599; in that of GGAAUUGGUUUCAGUCAAATT against RCOR1, active: -1.13. Regarding GGAAGAAGGUGUUUGAGAATT against QTRT1, the median seed-adjusted z-score was inactive: 0.0708. In the case of UCCACUGCCCAAUAAAUAUTT against PYDC1 it was active: -1.44; in that of CAACAGGUAUAACUACAUATT against CNDP2, inactive: 0.43; in that of CAAUUACGAGAAACCUUAUTT against ZNF322B, inactive: 0.0433. As to GAAACUAUAGACAAGUUAATT against BRD1, the median seed-adjusted z-score was inactive: 0.0644. Turning to CAACCAAAUUGGAUAAGUATT against B4GALT5, the median seed-adjusted z-score was inactive: 0.104. Next, GUAGCUCCGAGGUCUGAUATT against SMARCA4: inactive: 0.223; GAGUGUACCUUUUCAUGAUTT against PTDSS1: inactive: -0.76.

With GCUUAAAGGAGGUUACAAATT against PRTFDC1, the median seed-adjusted z-score is inactive: 0.493. Consider GGAGGAUAUGAGACAAGAATT against KRT23, for which the median seed-adjusted z-score was inactive: -0.0696.

Regarding CCUUCUUGGUGGAAUCCCATT against NGB, the median seed-adjusted z-score was inactive: 0. Consider CCAGUGAUCUGUACAACUUTT against IRF1, for which the median seed-adjusted z-score is inactive: 0.831. In the case of GAAGAUCUGUGGACCAAAATT against KLF6, the median seed-adjusted z-score is inactive: -0.0398.

As for CCAAUUCUGAGGACUCAGATT against MAP3K12, the median seed-adjusted z-score was inactive: -0.6. In the case of AACAUUCUAUUACCAAGAATT against EDF1 it was inactive: 0.0783; in that of GGAAAACGAGGAUACUUAATT against POLR1A, inactive: 0.0814; in that of CUGCUGUAUUUAUGAGAAATT against PPP1R11, inactive: -0.498. For the sequence CCUACGGACUGAACAUGAATT against NARS2, the median seed-adjusted z-score is inactive: 0.505. In the case of GGUUUAAUUCAAGCACGAATT against GALNT7 it was inactive: -0.63; in that of CGCACACGUAGAGACCUUATT against PNN, active: 1.29; in that of GCAUACGCAGGAUCCUGGATT against KRT34, inactive: 0.124.

Turning to GGCUAUACCUUGACCAUAATT against LRRTM3, the median seed-adjusted z-score is inactive: -0.0808. Next, CCGGUGCUAUCACAUCUAUTT against DYRK2: inactive: 0; CAGUCAACAGUGUAUGUCATT against PAQR3: inactive: -0.0384. Next, GCUUCCAGAACUUAAGUAATT against RAB9A: inactive: 0.247; GAUGAUUACAUAUCAGAGATT against ZNF630: inactive: -0.533. Next, GCAUGCAUUUUGUAUGAGATT against NEK11: inactive: 0.181. On to CUAGAGCACUUGGACCUUUTT against TLR4, for which the median seed-adjusted z-score was inactive: 0.113. In the case of GCAUCAAUUUCUGGACAAATT against PPP1R12B it was inactive: 0.416; in that of CAAGGGACCUCAACAAAUUTT against RGS18, inactive: -0.0369; in that of GAGAUUCAUUGGAGACUAUTT against RASL11A, inactive: -0.294. AGACUAUGAUGAGGCCCUATT against POMGNT1: the median seed-adjusted z-score was inactive: -0.0431.

As to CAUCAUGCCUAGUCCAGCATT against SSBP2, the median seed-adjusted z-score was inactive: 0.

As to CAACCACUGUGAUCACAGUTT against C1R, the median seed-adjusted z-score was inactive: -0.541. As to AGUUGGGAUUAAUACUUCATT against CCL7, the median seed-adjusted z-score is inactive: 0.23. As to GAAAAGUCGUAGUGUCAUATT against DCTN5, the median seed-adjusted z-score is inactive: 0.0112. In the case of GCAUAGCCGUGCUUCUCUATT against FBXO18 it was inactive: -0.417. Consider CAACAUCUAUCGCUAUGAUTT against CCIN, for which the median seed-adjusted z-score is inactive: 0.0472. For GCGUUGACAGUGAUGCGUATT against SLC4A3, the median seed-adjusted z-score is inactive: -0.7.

With CCCUCAAAAUAAUUCGAUUTT against TNFRSF1A, the median seed-adjusted z-score was inactive: 0.00772. Next, GCUCAUAGGUAAGAAUUGUTT against NUBP1: inactive: -0.0975; CCCUAUGAUUGUAACAAGATT against BUB1B: inactive: -0.579; CAUAGAUUUUGUACGUUUATT against ABCA13: inactive: 0.238.

Turning to GGCACUUACUCAUUCAUUATT against GPR85, the median seed-adjusted z-score was inactive: 0.0452.

For CCUUGCUUGUGAGAGCAGATT against NPAS1, the median seed-adjusted z-score is inactive: -0.386.

With GGCUUAGAAAAUAACGUGATT against DGKB, the median seed-adjusted z-score is inactive: 0.325. In the case of GGAGAGCUUUAAUACGAUUTT against GRHL2 it was inactive: 0.0233.

On to GCUACAUUCUCAACUCGGATT against MATN2, for which the median seed-adjusted z-score was inactive: 0.275.

In the case of CGAGUAACAUCUGCGCAUATT against PAICS, the median seed-adjusted z-score is inactive: -0.725. Next, GGUCAAAUGCUUACCAGGATT against RGS6: inactive: -0.904. Next, GCAUAUACUGAGGAAGACATT against GPR142: inactive: -0.0636; GGAAUGGAAUCUACCCACUTT against NRBP2: inactive: 0.093; GCAAGAUCUCUAUUGGUAUTT against ABCC4: active: -1.66. In the case of CAAUGUCGAUAUCUAUAAATT against TMPRSS2 it was inactive: 0.433; in that of CAAUCAGGAUUUUCACCAUTT against RBM7, inactive: 0; in that of GCUAGUAUGUUGUCCAAAATT against PLK2, inactive: -0.419. As for GCAGAGCAAUGAUAUCGCUTT against CBX5, the median seed-adjusted z-score is inactive: 0.404. In the case of CAGUUGGAGUUUAUGACAATT against BBS2 it was inactive: 0; in that of GGGUUAACAUGGAAGAAUUTT against ZNF461, inactive: 0.0877; in that of GGUUGUUGCUUGGUUCGUUTT against PREPL, inactive: -0.459. In the case of GAUUGAACUGUUGACGAAATT against USP34 it was inactive: 0.0665; in that of GGAACACUUUGUAACAGCATT against TYRP1, inactive: 0.173; in that of UGAAACGGGUCGUCACGGATT against HS3ST6, inactive: 0.

For the sequence GGAUUUUAGUUGUAAUGCUTT against ZSCAN10, the median seed-adjusted z-score was inactive: 0.

GAACCAGAUCAGUAACAAATT against NLRC3: the median seed-adjusted z-score is inactive: 0.323.

In the case of UCUCAUCCGCGAUAUGUUATT against NR2F1, the median seed-adjusted z-score was inactive: 0.259.

Turning to GGAAAUCCAAGAUAAACAUTT against ZNF334, the median seed-adjusted z-score was inactive: 0.611. In the case of GACCCGAGUUCAUCGCCUATT against COX6A1 it was inactive: -0.0917. Next, ACAUGCAGCUGGUAAGGAUTT against MFSD4: active: -1.89. Next, GAGCAGAACCGCAUCAUAUTT against UCN: inactive: -0.472. For CACCGGUGGUCUACCAUAATT against DOCK6, the median seed-adjusted z-score is inactive: 0.0378. Next, UGUUUAUUGUAACCAAAGATT against PPCS: inactive: 0.

GAAAGGACCUGUAGACGAATT against PDE6C: the median seed-adjusted z-score is inactive: 0.205.

For the sequence ACGACAUCGUGAUUCUCCATT against ELA2, the median seed-adjusted z-score was inactive: 0.586. Next, GCAAGAUCCGAGACCAGUATT against PIK3R2: inactive: 0.421; GAGUCAAAAUCACACCGGATT against RAB8A: inactive: -0.0436; GAGACUUACAUAAACCGAUTT against ADH4: inactive: -0.0991.

Take CCUGGUGUCUCUGUACAUATT against MC5R: the median seed-adjusted z-score was inactive: 0.225. In the case of GCAGCUUAGGAACAGCAGATT against THOC4 it was active: -1.54; in that of GCAAGGUUUUUGGGACUGATT against SALL4, inactive: -0.344; in that of GGAAGAAAGUAUAAUAGAATT against MAFG, inactive: 0. Take CAUAAUCGAAGGUCUGAAATT against KCNAB2: the median seed-adjusted z-score was inactive: 0. In the case of UGACUCCAAUGGGAAGAAATT against DHX33 it was inactive: -0.689; in that of GGAACGUGUUGACUGAAGATT against C5AR1, inactive: 0.366; in that of GCAUGGAUUCGGAAGGAAATT against RCC1, inactive: -0.165.

Consider GGAUUUACGACAUUACCAATT against E2F4, for which the median seed-adjusted z-score was inactive: -0.395. In the case of GUCAGACCGUUGUAAAUCATT against TAAR6 it was inactive: -0.124; in that of GCAUGAUAGUUUUCCGGCUTT against AHR, inactive: -0.0422. For GGAUACCAUCUAUUACCAUTT against AGBL5, the median seed-adjusted z-score is inactive: 0.0343. In the case of GGACCUUGGAUUAUCUGAATT against YME1L1 it was inactive: 0.131; in that of UGAGAACCGUAUUUUCAAATT against PRODH2, inactive: 0.817; in that of GGAACUACCAUGCAGGCUATT against ATP6V0B, inactive: 0.

With GGAUGGAGACUACGAGUUUTT against STK4, the median seed-adjusted z-score is inactive: 0.652. Regarding GAUAAGAGGUCGGUACAUATT against GRIA4, the median seed-adjusted z-score was inactive: 0. In the case of CUAUCUUCCUAGUAGUUCUTT against CDKL3 it was inactive: 0.243.

For the origin of these results see PubChem BioAssay AID1347426 (Functional Genomics Laboratory (NCATS/FGL), 2020).
